Binding data for one molecule are collected here from patent US20240101675A1.

For this assay, the target named is IL-17. The experiment in a line: specificity ELISA, ligand coated.

Results are given in words; binding and its absence hold for the method and conditions named.

B1: BDG33.023 (antibody, human IgG1, V domains shown)
VH: QMQLVESGGGVVQPGRSLRLSCAASGFAFRTYGMHWVRQAPGKGLEWVAVIWYDGSNTHYADSVKGRFTITRDNSKNTLNLQMNSLRAEDTAVYYCARAPQWYLSAEAFDLWGQGTMVTVSS
VL: SYVLTQPPSVSVAPGQTARITCGGNLIGSKLVHWYQQKPGQAPVLVVYDDSDRPSRIPERFSGSNSGNTATLTISRVEAGDEADYYCQVWDHSSDHVVFGGGTKLTVL
Consider B1, for which the binding result was “no binding (tested: 100 nM IgG)”.
